No constants are given. Whether binding was seen depends on the method and setting. For part of these data: Binding seen in cells or lysates may run through a third protein. Some entries that bind do so weakly or less than the wild type. Sequences can lack the tags named with a protein.
T1: BmrD-His6 (YheH with a hexahistidine tag) (Bacillus subtilis) (UniProt O07549)
T1 sequence: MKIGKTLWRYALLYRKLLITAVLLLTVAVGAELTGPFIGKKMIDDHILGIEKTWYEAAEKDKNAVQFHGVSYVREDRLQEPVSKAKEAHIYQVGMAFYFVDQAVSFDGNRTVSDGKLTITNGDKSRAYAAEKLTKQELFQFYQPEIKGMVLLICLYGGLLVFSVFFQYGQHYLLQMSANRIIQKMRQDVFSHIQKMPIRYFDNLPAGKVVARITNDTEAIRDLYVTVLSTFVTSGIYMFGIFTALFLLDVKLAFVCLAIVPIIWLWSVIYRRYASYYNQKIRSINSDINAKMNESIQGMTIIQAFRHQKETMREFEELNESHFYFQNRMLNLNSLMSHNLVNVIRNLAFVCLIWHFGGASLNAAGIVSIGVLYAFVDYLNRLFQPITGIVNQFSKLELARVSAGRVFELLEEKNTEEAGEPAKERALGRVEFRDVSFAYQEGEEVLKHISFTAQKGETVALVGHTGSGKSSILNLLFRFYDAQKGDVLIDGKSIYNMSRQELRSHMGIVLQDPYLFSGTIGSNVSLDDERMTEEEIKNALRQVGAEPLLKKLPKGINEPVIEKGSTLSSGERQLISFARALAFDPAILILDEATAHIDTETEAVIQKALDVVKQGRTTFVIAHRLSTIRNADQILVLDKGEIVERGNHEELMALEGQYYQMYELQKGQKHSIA

B1: BmrC (YheI), untagged subunit (protein, UniProt O07550 1-585)
chain: MFSVLKKLGWFFKAYWLRYTIAIVLLLAVNVIEMFPPKLLGNAIDDMKAGAFTAEGLLFYIGIFFVLTAAVYIMSYFWMHQLFGGANLMEKILRTKLMGHLLTMSPPFYEKNRTGDLMARGTNDLQAVSLTTGFGILTLVDSTMFMMTIFLTMGFLISWKLTFAAIIPLPVMAIAISLYGSKIHERFTEAQNAFGALNDRVLESVSGVRVIRAYVQETNDVRRFNEMTADVYQKNMKVAFIDSLFEPTVKLLVGASYLIGLGYGAFLVFRNELTLGELVSFNVYLGMMIWPMFAIGELINVMQRGNASLDRVNETLSYETDVTDPKQPADLKEPGDIVFSHVSFTYPSSTSDNLQDISFTVRKGQTVGIAGKTGSGKTTIIKQLLRQYPPGEGSITFSGVPIQQIPLDRLRGWIGYVPQDHLLFSRTVKENILYGKQDATDKEVQQAIAEAHFEKDLHMLPSGLETMVGEKGVALSGGQKQRISIARALMANPEILILDDSLSAVDAKTEAAIIKNIRENRKGKTTFILTHRLSAVEHADLILVMDGGVIAERGTHQELLANNGWYREQYERQQLFTAEEGGAGA
B2: His6-BmrC (YheI with an N-terminal hexahistidine tag) (protein, UniProt O07550 1-585)
chain: B1 chain

What was measured:
[1] = target: T1, BmrD-His6 (YheH with a hexahistidine tag) (Bacillus subtilis); assay: pull-down; Ni2+ affinity chromatography by the His6 tag of BmrD only; membranes solubilised with 1% FC12 or 1% DDM; elution with 250 mM imidazole
[2] = target: T1, BmrD-His6 (YheH with a hexahistidine tag) (Bacillus subtilis); assay: SEC; Superdex 200 10/300 GL; 50 mM Tris-HCl pH 8, 150 mM NaCl, 10% glycerol, 5 mM beta-mercaptoethanol, 0.05% (w/v) DDM; protein purified by nickel affinity in DDM; both purified
[3] = target: T1, BmrD-His6 (YheH with a hexahistidine tag) (Bacillus subtilis); assay: AUC; sedimentation velocity, 20°C, 42000 rpm, in DDM; 0.85 mg/ml, diluted 4 times, or 0.11 mg/ml after SEC; both purified

Row | Binder | binding [1] | binding [2] | binding [3]
1 | B1 | binds |  | 
2 | B2 |  | binds | binds

— paper PMC3094339
